Reference: patent publication US20140200134A1, “Anthranilamide Compounds and their use as Pesticides” (BASF SE, priority 2011, published 2014)
Some of these results come from one statement about several compounds together.

Experiments:
Format in all cases: in vivo
[1] = system: Boll weevil (Anthonomus grandis); test: Boll weevil microtiter plate diet test; conditions: 2500 ppm; sprayed onto insect diet; egg and larval mortality after 5 days
Description: B.8 Boll weevil (Anthonomus grandis)
For evaluating control of boll weevil (Anthonomus grandis) the test unit consisted of 96-well-microtiter plates containing an insect diet and 20-30 A. grandis eggs.
(§1) The compounds were formulated using a solution containing 75% v/v water and 25% v/v DMSO. Different concentrations of formulated compounds were sprayed onto the insect diet at 5 μl, using a custom built micro atomizer, at two replications.
After application, microtiter plates were incubated at about 25±1° C. and about 75±5% relative humidity for 5 days. Egg and larval mortality was then visually assessed.

[2] = system: Tobacco budworm (Heliothis virescens); test: Tobacco budworm foliar spray test on cotton plants; conditions: 2500 ppm; sprayed cotton plants, larvae; 4 days after treatment
Description: B.7 Tobacco budworm (Heliothis virescens) I
(§2) The active compounds were formulated in cyclohexanone as a 10,000 ppm solution supplied in tubes. The tubes were inserted into an automated electrostatic sprayer equipped with an atomizing nozzle and they served as stock solutions for which lower dilutions were made in 50% acetone:50% water (v/v). A nonionic surfactant (Kinetic®) was included in the solution at a volume of 0.01% (v/v).
Cotton plants were grown 2 plants to a pot and selected for treatment at the cotyledon stage. Test solutions were sprayed onto the foliage by an automated electrostatic plant sprayer equipped with an atomizing spray nozzle. The plants were dried in the sprayer fume hood and then removed from the sprayer. Each pot was placed into perforated plastic bags with a zip closure. About 10 to 11 budworm larvae were placed into the bag and the bags zipped closed. Test plants were maintained in a growth room at about 25° C. and about 20-40% relative humidity for 4 days, avoiding direct exposure to fluorescent light (24 hour photoperiod) to prevent trapping of heat inside the bags. Mortality and reduced feeding were assessed 4 days after treatment, compared to untreated control plants.

[3] = system: Green Peach Aphid (Myzus persicae); test: Green peach aphid spray test on bell pepper plants; conditions: 2500 ppm; sprayed infested bell pepper plants; after 5 days
Description: B.9 Green Peach Aphid (Myzus persicae)
as §2
Bell pepper plants at the first true-leaf stage were infested prior to treatment by placing heavily infested leaves from the main colony on top of the treatment plants. Aphids were allowed to transfer overnight to accomplish an infestation of 30-50 aphids per plant and the host leaves were removed. The infested plants were then sprayed by an automated electrostatic plant sprayer equipped with an atomizing spray nozzle. The plants were dried in the sprayer fume hood, removed, and then maintained in a growth room under fluorescent lighting in a 24-hr photoperiod at about 25° C. and about 20-40% relative humidity. Aphid mortality on the treated plants, relative to mortality on untreated control plants, was determined after 5 days.

[4] = system: Southern armyworm (Spodoptera eridania); test: Southern armyworm foliar spray test on lima bean plants; conditions: at less than 300 ppm; sprayed lima bean plants, larvae; 4 days after treatment
[5] = system: Mediterranean fruitfly (Ceratitis capitata); test: Mediterranean fruitfly microtiter plate diet test; conditions: 2500 ppm; sprayed onto insect diet; egg and larval mortality after 5 days
Description: B.3 Mediterranean fruitfly (Ceratitis capitata)
For evaluating control of Mediterranean fruitfly (CeratitiS capitate) the test unit consisted of microtiter plates containing an insect diet and 50-80 C. capitata eggs.
as §1
After application, microtiter plates were incubated at about 28±1° C. and about 80±5% relative humidity for 5 days. Egg and larval mortality was then visually assessed.

[6] = system: Cowpea aphid (aphis craccivora); test: Cowpea aphid spray test on potted cowpea plants; conditions: 500 ppm; sprayed cowpea plants; assessed after 72 hours
Description: B.1 Cowpea aphid (aphis craccivora)
The active compound was dissolved at the desired concentration in a mixture of 1:1 (vol:vol) distilled water:acetone. Surfactant (Alkamuls® EL 620) was added at a rate of 0.1% (vol/vol). The test solution was prepared at the day of use.
Potted cowpea plants were colonized with approximately 50-100 aphids of various stages by manually transferring a leaf tissue cut from infested plant 24 hours before application. Plants were sprayed after the pest population had been recorded. Treated plants were maintained on light carts at about 28° C. Percent mortality was assessed after 72 hours.

[7] = system: Diamond back moth (plutella xylostella); test: Diamond back moth cabbage leaf-dip test; conditions: 500 ppm; dipped cabbage leaves, 3rd instar larvae; 72 hours after treatment
Description: B.2 Diamond back moth (plutella xylostella)
The active compound was dissolved at the desired concentration in a mixture of 1:1 (vol:vol) distilled water:acteone. Surfactant (Alkamuls® EL 620) was added at a rate of 0.1% (vol/vol). The test solution was prepared at the day of use.
Leaves of cabbage were dipped in test solution and air-dried. Treated leaves were placed in petri dishes lined with moist filter paper and inoculated with ten 3rd instar larvae. Mortality was recorded 72 hours after treatment. Feeding damages were also recorded using a scale of 0-100%.

[8] = system: Vetch aphid (Megoura viciae); test: Vetch aphid broad bean leaf disk microtiter test; conditions: 2500 ppm; sprayed broad bean leaf disks, adult aphids; 5 days
Description: B.6 Vetch aphid (Megoura viciae)
For evaluating control of vetch aphid (Megoura viciae) through contact or systemic means the test unit consisted of 24-well-microtiter plates containing broad bean leaf disks. The compounds were formulated using a solution containing 75% v/v water and 25% v/v DMSO. Different concentrations of formulated compounds were sprayed onto the leaf disks at 2.5 μl, using a custom built micro atomizer, at two replications.
After application, the leaf disks were air-dried and 5-8 adult aphids placed on the leaf disks inside the microtiter plate wells. The aphids were then allowed to suck on the treated leaf disks and incubated at about 23±1° C. and about 50±5% relative humidity for 5 days. Aphid mortality and fecundity was then visually assessed.

Measured: mortality in comparison with untreated controls

CNC(=O)c1cc(C=NOC(C)C)cc(C)c1NC(=O)c1ccc(C(F)(F)F)cc1-c1ncccc1Cl [Compound 1-9]
over 75%: [1] | [2] | [3] | [4]

CCON=Cc1cc(C)c(NC(=O)c2ccc(C(F)(F)F)cc2-c2ncccc2Cl)c(C(=O)NC)c1 [Compound 1-4]
not listed: [8]
over 75%: all other assays above

CNC(=O)c1cc(-n2cccn2)cc(Cl)c1NC(=O)c1ccc(C(F)(F)F)cc1-c1ncccc1Cl [Compound 1-13]
over 75%: [2] | [3] | [4]

CCON=Cc1cc(Cl)c(NC(=O)c2ccc(C(F)(F)F)cc2-c2ncccc2Cl)c(C(=O)NC)c1 [Compound 1-6]
not listed: [8]
over 75%: all other assays above

CNN=Cc1cc(Cl)c(NC(=O)c2ccc(C(F)(F)F)cc2-c2ncccc2Cl)c(C(N)=O)c1 [Compound 1-14]
over 75%: [5] | [3]

CCON=Cc1cc(C)c(NC(=O)c2ccc(C(F)(F)F)cc2-c2ncccc2Cl)c(C(=O)NC(C)C)c1 [Compound 1-5]
not listed: [7] | [8]
over 75%: all other assays above

CCON=Cc1cc(Cl)c(NC(=O)c2ccc(C(F)(F)F)cc2-c2ncccc2Cl)c(C(=O)NC(C)C)c1 [Compound 1-7]
over 75%: [5] | [1] | [2] | [3] | [4]

Cc1cc(C=NOC(C)C)cc(C(=O)NC(C)C)c1NC(=O)c1ccc(C(F)(F)F)cc1-c1ncccc1Cl [Compound 1-10]
over 75%: [1] | [2] | [3] | [4]

CNC(=O)c1cc(C=NOc2ccccc2)cc(C)c1NC(=O)c1ccc(C(F)(F)F)cc1-c1ncccc1Cl [Compound 1-8]
over 75%: all assays above
